According to article PMC5590987:
These are yes or no findings as the source states them, for the method shown. Binding seen in cells or lysates may run through a third protein. Some results given as binding are weak or reduced against the parent protein; the word gives no strength.

Sequences of proteins named here, by UniProt entry; tags and fusion partners are left off.
UniProt A0A096MJY4: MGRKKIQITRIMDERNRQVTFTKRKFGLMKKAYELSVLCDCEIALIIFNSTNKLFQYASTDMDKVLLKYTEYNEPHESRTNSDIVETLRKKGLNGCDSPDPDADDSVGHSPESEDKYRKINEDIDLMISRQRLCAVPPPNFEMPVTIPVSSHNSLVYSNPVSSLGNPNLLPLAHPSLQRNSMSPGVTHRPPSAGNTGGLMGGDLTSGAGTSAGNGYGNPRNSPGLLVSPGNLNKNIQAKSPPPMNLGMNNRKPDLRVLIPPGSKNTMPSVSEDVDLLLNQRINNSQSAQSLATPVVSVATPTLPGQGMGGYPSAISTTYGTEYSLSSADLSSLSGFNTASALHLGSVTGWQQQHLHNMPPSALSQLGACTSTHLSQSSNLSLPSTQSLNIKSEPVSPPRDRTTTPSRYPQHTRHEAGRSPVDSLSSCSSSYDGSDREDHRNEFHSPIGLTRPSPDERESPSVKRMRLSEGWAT

Target: T1, NFATc3 (rat (endogenous in neonatal rat cardiomyocytes))
T1 sequence: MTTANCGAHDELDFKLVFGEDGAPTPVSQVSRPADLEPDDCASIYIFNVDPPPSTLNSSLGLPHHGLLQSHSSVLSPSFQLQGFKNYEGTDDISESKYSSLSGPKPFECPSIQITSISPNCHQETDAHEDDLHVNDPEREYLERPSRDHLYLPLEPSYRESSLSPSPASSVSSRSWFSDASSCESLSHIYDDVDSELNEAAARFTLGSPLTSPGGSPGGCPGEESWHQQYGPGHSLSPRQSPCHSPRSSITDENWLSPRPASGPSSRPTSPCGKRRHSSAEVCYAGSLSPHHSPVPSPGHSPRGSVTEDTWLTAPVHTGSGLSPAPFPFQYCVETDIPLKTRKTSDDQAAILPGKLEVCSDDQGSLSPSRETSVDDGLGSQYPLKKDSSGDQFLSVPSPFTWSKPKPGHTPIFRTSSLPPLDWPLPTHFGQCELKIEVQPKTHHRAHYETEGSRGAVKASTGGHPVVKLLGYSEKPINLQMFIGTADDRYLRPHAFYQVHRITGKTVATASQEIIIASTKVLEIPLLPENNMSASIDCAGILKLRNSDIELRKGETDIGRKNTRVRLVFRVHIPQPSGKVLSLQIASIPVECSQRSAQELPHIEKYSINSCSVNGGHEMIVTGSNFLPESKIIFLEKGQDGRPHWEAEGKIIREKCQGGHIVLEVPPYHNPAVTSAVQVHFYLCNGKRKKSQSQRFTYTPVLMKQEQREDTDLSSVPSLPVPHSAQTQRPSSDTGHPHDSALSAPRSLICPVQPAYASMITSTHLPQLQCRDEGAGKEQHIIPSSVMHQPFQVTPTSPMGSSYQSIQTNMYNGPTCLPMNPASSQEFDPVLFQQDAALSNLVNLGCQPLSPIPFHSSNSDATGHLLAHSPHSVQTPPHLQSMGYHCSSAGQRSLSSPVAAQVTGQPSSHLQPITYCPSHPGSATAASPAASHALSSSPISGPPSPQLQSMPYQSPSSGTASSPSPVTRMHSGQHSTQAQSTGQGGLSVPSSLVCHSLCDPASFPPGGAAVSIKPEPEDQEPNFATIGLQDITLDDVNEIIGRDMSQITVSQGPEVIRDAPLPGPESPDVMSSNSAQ
Assay: co-IP; 1 mg protein extract of neonatal rat cardiomyocytes (RIPA buffer) immunoprecipitated overnight at 4°C with 5 μg anti-NFAT (ab 2722) or anti-MEF-2c (C-21X), recovered on Protein A Sepharose CL-4B, Western blot with anti-MEF-2c

## MEF-2c (from UniProt A0A096MJY4 1-473)
  binding: binds
